Data as given in paper PMC9613470, “Diverse MarR bacterial regulators of auxin catabolism in the plant microbiome” (Nature Microbiology, 2022).
Several values for one entry are separate records, joined by “and”; a condition that tells them apart may be missing. Equal entries are not always repeated.

Tested on: V. paradoxus CL14
Assay: IAA degradation by V. paradoxus CL14 wild type, deletion and complemented strains (Salkowski reagent)
Assay type: cell-based, Variovorax paradoxus CL14
Details: at 70 hours

O=C(O)Cc1c[nH]c2ccccc12 [IAA, indole-3-acetic acid]
IAA (mg/mL), single measures (CL14 ΔHS33 background carrying Vector 2): 0.005142 mg/mL and 0.008114 mg/mL and 0.005127 mg/mL
IAA (mg/mL), single measures (CL14 ΔHS33 background carrying pBBR1::61-49): 0.1083 mg/mL and 0.1116 mg/mL and 0.1137 mg/mL
IAA (mg/mL), single measures (CL14 ΔHS33 background carrying pBBR1::61-54): 0.1113 mg/mL and 0.1079 mg/mL and 0.1099 mg/mL
IAA (mg/mL), single measures (CL14 ΔHS33 background carrying pBBR1::61-59): 0.1186 mg/mL and 0.125 mg/mL and 0.1166 mg/mL
IAA (mg/mL), single measures (CL14 ΔHS33 background carrying pBBR1::65-54): 0.1076 mg/mL and 0.1063 mg/mL and 0.1085 mg/mL
IAA (mg/mL), single measures (CL14 ΔHS33 background carrying pBBR1::65-62): 0.1077 mg/mL and 0.1068 mg/mL and 0.1104 mg/mL
IAA (mg/mL), single measures (CL14 ΔHS33 background carrying pBBR1::70-62): 0.006047 mg/mL and 0.00671 mg/mL and 0.006551 mg/mL
IAA (mg/mL), single measures (CL14 ΔHS33 background carrying pBBR1::70-66 (iadCDEFG)): 0.004755 mg/mL and 0.004311 mg/mL and 0.004654 mg/mL
IAA (mg/mL), single measures (CL14 ΔHS33 background carrying pBBR1::72-66): 0.004568 mg/mL and 0.006321 mg/mL and 0.004955 mg/mL
IAA (mg/mL), single measures (CL14 ΔHS33 background carrying pBBR1::72-71): 0.1037 mg/mL and 0.1022 mg/mL and 0.09963 mg/mL
IAA (mg/mL), single measures (CL14 ΔHS33 background carrying pBBR1::77-71): 0.1057 mg/mL and 0.1078 mg/mL and 0.1056 mg/mL
IAA (mg/mL), single measures (CL14 ΔHS33 background carrying pBBR1::77-73): 0.1072 mg/mL and 0.106 mg/mL and 0.105 mg/mL
IAA (mg/mL), single measures (CL14 ΔHS33 background carrying pBBR1::iadCDE): 0.004554 mg/mL and 0.004354 mg/mL and 0.007057 mg/mL
IAA (mg/mL), single measures (CL14 ΔHS33 background carrying pBBR1::iadCDEF): 0.007288 mg/mL and 0.003997 mg/mL and 0.004125 mg/mL
IAA (mg/mL), single measures (CL14 ΔHS33 background carrying pBBR1::iadCDEG): 0.005788 mg/mL and 0.006349 mg/mL
IAA (mg/mL), single measures (CL14 ΔHS33 background carrying pBBR1::iadCDFG): 0.1286 mg/mL and 0.1307 mg/mL and 0.1292 mg/mL
IAA (mg/mL), single measures (CL14 ΔHS33 background carrying pBBR1::iadCEFG): 0.1464 mg/mL and 0.1065 mg/mL and 0.1581 mg/mL
IAA (mg/mL), single measures (CL14 ΔHS33 background carrying pBBR1::iadDE): 0.01004 mg/mL and 0.005788 mg/mL and 0.005572 mg/mL
IAA (mg/mL), single measures (CL14 ΔHS33 background carrying pBBR1::iadDEFG): 0.006119 mg/mL and 0.005544 mg/mL
IAA (mg/mL), single measures (CL14 ΔHS33 background carrying pBBR1MCS-2): 0.1086 mg/mL and 0.1159 mg/mL and 0.1128 mg/mL
